Measurements: patent publication US12365946B2, “Compositions and methods for the diagnosis and treatment of lymphatic system disorders” (THE CHILDREN'S HOSPITAL OF PHILADELPHIA, priority 2018, dated 2025)
At least one compound was matched to its structure with a doubt left.

What was measured:
[1] = tested on: HDLECs expressing EPHB4 mutations; assay: Three-dimensional lymphatic spheroid sprouting assay, EPHB4 mutants; assay type: cell-based, human; conditions: EPHB4 mutation L778_G779insLMGS; FIG. 18
mTORC2 = mTORC2 (Homo sapiens, UniProt P42345); conditions: Table 2 grade symbols (+ to ++++, √); key not given; cited from earlier work
[2] = tested on: Ea.hy926 cells expressing mutant ARAF; assay: Ea.hy926 cell line expressing mutant ARAF; assay type: cell-based, human
[3] = tested on: Ea.hy926 cells overexpressing BRAF WT and F486S mutant; assay: VE-cadherin and actin staining in Ea.hy926 cells overexpressing BRAF WT and F486S mutant; assay type: cell-based, human; conditions: FIG. 3
[4] = tested on: HDLECs expressing RAF1 mutation T145P; assay: HDLECs expressing RAF1-T145P, pERK and VE-cadherin; assay type: cell-based, human
[5] = tested on: HDLECs expressing ARAF-S214P; assay: Three-dimensional lymphatic spheroid sprouting assay, ARAF-S214P; assay type: cell-based, human; conditions: 30 nM, 100 nM and 300 nM; without VEGFC; FIG. 23D
c-Raf, B-Raf, ERK1/2 = conditions: cited from earlier work

| Structure (SMILES) | increased sprouting (sprout length) [1] | mTORC2 (mTORC2) | reversal of the effects of the mutant ARAF [2] | VE-cadherin surface staining [3] | filamentous actin [3] | cell morphological differences induced by RAF1-T145P ([4]; HDLECs) | VE-cadherin accumulation at the cell membrane ([4]; HDLECs expressing RAF1-T145P) | levels of phosphorylation of the ERK ([4]; HDLECs expressing RAF1-T145P) | number of sprouts [5] | sprout length [5] | inhibition of the kinase activities of c-Raf, B-Raf, ERK1/2 (c-Raf, B-Raf, ERK1/2) |
| --- | --- | --- | --- | --- | --- | --- | --- | --- | --- | --- | --- |
| COc1cccc2cc(-c3nc([C@H]4CC[C@H](C(=O)O)CC4)n4ncnc(N)c34)[nH]c12 [OSI-027] | rescue | + | – | – | – | – | – | – | – | – | – |
| CO[C@H]1C[C@@H]2CC[C@@H](C)[C@@](O)(O2)C(=O)C(=O)N2CCCC[C@H]2C(=O)O[C@H]([C@H](C)C[C@@H]2CC[C@@H](O)[C@H](OC)C2)CC(=O)[C@H](C)/C=C(\C)[C@@H](O)[C@@H](OC)C(=O)[C@H](C)C[C@H](C)/C=C/C=C/C=C/1C [Rapamycin (Sirolimus), Rapamycin] | rescue | – | – | – | – | – | – | – | – | – | – |
| CC(=O)Nc1cccc(-n2c(=O)n(C3CC3)c(=O)c3c(Nc4ccc(I)cc4F)n(C)c(=O)c(C)c32)c1 [Trametinib (GSK1120212), Trametinib] | – | – | reversal | increases | increases | rescued | increased | reduced | significantly reduces | significantly reduces | nM in cell-free assays, no |
